# The list shows a part of the results. Hit calls seldom repeat between salt and free forms of one compound.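 Kinases were expressed as nanoluciferase fusions in K562 cells and luminescence was read every 4 h between 2 and 18 h as percent of control, DMSO set to 100% and a positive control to 0%. A time point counts as decreased when the signal drops significantly (2 sigma). The hit call is the authors' own, does not follow from the count of time points alone, and its rule is not shown.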
# By UniProt entry, the sequences of proteins in these tests, tags left out. Where a name states a change or a piece, a line headed by the entry shows the natural chain unless it says otherwise.
# UniProt P00519, whole entry: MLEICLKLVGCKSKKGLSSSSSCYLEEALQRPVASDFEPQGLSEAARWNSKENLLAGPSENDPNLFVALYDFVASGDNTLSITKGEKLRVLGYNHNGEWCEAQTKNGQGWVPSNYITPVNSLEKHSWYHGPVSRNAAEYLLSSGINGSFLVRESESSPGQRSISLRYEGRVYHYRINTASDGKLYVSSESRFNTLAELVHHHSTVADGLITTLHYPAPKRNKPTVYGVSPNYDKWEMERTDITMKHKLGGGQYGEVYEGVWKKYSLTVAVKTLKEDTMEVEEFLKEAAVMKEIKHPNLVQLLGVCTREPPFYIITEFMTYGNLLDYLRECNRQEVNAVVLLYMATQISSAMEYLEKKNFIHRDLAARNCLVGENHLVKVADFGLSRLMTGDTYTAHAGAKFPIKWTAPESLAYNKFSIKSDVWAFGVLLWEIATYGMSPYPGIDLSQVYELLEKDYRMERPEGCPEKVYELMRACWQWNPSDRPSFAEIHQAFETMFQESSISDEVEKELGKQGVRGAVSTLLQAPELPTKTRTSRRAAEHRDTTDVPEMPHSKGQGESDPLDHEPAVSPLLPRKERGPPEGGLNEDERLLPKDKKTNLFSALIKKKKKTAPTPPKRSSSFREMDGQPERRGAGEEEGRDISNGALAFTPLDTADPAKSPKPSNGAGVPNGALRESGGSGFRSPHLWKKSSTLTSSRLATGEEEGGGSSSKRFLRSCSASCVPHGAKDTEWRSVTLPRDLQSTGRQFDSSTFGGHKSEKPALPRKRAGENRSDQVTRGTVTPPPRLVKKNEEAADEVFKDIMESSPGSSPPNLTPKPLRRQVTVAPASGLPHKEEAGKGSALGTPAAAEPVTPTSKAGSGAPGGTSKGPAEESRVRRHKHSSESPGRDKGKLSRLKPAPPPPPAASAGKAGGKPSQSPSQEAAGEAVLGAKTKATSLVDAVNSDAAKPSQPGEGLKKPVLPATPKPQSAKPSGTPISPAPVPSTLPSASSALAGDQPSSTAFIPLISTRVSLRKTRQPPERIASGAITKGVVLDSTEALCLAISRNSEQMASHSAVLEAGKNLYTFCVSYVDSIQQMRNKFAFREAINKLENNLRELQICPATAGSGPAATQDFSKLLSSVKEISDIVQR
# UniProt P31749: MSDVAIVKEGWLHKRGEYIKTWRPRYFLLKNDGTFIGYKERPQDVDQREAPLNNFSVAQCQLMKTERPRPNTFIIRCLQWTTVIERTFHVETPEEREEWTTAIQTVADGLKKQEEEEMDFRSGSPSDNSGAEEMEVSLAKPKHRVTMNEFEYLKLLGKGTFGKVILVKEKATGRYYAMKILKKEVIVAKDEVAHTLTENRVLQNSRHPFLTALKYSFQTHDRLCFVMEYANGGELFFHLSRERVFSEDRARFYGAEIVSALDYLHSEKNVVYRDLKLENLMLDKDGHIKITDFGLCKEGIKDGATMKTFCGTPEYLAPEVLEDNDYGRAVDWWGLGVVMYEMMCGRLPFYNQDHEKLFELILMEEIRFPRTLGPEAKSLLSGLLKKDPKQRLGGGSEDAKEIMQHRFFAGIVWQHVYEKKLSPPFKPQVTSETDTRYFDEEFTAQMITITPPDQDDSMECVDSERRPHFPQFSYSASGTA
# UniProt O14965: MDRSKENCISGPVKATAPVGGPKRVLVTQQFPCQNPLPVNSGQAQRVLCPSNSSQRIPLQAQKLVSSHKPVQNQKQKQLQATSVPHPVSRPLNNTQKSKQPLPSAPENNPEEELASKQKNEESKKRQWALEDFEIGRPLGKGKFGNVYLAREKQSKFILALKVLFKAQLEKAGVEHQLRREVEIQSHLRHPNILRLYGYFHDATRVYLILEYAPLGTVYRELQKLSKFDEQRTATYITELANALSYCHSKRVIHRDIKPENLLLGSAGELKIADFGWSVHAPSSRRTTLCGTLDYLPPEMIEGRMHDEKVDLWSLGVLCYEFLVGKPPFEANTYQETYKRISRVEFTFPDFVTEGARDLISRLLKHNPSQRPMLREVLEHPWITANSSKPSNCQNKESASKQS
# UniProt Q96GD4, whole entry: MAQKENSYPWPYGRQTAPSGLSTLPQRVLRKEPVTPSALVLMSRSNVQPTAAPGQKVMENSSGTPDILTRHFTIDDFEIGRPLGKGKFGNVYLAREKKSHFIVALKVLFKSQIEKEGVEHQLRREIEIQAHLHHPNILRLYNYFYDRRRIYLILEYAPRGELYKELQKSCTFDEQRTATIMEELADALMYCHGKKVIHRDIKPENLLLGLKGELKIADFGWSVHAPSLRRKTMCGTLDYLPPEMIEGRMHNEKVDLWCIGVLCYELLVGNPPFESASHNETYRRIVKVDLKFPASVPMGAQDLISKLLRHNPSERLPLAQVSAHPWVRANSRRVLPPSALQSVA
# UniProt Q9UQB9: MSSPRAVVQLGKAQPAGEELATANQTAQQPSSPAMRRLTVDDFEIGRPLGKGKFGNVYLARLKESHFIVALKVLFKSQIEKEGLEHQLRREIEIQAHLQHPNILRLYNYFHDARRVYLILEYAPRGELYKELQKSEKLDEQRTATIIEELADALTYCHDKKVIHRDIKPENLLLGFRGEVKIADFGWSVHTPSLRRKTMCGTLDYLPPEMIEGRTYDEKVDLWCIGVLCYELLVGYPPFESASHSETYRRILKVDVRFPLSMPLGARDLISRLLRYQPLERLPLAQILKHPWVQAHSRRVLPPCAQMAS
# UniProt P51813: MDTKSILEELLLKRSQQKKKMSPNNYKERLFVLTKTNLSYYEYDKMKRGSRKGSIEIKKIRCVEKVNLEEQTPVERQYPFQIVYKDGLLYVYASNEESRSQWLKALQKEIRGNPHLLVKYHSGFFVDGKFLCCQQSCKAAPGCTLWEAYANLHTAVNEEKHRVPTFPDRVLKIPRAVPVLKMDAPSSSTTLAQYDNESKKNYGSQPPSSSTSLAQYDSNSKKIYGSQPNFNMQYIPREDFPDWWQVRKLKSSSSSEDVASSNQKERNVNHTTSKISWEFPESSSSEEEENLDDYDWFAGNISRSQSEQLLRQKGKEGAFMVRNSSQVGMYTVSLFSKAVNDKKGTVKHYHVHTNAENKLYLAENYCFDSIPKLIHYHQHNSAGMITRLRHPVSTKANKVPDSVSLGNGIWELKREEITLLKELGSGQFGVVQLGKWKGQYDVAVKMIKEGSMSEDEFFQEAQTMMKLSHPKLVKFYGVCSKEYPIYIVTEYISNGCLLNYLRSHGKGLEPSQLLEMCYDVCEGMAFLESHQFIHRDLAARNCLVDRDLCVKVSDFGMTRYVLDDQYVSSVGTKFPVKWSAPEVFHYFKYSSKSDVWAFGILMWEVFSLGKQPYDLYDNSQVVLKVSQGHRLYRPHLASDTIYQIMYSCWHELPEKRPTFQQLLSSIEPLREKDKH
# UniProt P15056, whole entry, looked up: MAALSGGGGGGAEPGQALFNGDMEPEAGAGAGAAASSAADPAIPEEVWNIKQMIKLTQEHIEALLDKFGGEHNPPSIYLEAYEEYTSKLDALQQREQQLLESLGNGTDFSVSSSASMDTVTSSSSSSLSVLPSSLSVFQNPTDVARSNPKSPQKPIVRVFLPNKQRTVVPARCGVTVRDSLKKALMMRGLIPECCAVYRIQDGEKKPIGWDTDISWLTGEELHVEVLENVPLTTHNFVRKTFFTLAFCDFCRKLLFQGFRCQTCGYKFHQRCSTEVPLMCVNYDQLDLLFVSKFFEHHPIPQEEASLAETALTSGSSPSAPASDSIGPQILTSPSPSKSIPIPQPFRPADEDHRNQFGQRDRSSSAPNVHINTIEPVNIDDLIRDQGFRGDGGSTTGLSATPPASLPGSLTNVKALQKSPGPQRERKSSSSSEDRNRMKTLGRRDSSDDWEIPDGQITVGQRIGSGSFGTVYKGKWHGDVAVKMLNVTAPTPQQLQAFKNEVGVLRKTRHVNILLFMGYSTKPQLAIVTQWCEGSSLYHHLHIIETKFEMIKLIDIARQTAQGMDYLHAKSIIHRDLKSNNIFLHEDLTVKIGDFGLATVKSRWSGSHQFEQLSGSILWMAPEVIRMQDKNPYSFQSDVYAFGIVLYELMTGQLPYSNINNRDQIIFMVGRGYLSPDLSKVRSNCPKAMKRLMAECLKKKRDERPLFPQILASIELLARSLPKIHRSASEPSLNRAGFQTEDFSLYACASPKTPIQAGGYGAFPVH
# UniProt Q13555: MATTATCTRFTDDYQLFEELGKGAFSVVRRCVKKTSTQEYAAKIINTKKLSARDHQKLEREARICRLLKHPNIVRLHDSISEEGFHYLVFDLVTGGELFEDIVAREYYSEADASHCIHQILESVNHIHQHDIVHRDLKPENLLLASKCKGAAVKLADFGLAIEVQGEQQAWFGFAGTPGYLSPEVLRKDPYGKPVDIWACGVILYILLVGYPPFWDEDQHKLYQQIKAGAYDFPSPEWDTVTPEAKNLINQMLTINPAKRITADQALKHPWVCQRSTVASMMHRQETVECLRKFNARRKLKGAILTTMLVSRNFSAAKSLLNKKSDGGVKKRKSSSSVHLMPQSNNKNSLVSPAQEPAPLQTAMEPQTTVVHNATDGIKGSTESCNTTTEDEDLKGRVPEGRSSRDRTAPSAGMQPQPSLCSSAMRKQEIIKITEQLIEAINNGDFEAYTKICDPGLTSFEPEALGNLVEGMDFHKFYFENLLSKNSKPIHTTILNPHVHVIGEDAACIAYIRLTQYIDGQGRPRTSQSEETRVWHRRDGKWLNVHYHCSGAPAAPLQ
# UniProt Q15131: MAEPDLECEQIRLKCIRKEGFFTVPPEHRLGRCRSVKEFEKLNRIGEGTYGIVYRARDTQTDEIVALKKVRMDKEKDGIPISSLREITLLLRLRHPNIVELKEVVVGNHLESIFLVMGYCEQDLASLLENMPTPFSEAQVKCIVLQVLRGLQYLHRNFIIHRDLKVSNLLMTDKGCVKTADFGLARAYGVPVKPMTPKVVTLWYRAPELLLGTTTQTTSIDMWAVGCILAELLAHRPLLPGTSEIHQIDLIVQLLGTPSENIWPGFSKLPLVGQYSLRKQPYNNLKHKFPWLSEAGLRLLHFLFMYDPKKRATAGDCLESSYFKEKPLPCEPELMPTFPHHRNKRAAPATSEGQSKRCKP
# UniProt Q00526: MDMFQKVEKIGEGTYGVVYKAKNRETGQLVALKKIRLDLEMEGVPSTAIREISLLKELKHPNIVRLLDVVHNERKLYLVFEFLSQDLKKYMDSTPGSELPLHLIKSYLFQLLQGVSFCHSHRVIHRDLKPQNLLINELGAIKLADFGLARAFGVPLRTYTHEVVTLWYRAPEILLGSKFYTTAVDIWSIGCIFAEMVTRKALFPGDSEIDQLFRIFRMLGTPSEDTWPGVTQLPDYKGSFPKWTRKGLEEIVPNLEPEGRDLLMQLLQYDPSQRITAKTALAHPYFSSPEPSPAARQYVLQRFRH
# UniProt P11802: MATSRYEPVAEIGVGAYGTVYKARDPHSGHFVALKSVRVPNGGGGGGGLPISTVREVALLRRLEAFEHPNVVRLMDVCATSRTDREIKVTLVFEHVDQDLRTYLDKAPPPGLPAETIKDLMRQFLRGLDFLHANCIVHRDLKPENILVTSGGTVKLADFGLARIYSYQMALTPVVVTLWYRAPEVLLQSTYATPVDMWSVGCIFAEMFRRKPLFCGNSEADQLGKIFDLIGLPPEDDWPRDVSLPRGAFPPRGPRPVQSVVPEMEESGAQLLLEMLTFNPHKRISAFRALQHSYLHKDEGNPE
# UniProt Q00535, whole entry, looked up: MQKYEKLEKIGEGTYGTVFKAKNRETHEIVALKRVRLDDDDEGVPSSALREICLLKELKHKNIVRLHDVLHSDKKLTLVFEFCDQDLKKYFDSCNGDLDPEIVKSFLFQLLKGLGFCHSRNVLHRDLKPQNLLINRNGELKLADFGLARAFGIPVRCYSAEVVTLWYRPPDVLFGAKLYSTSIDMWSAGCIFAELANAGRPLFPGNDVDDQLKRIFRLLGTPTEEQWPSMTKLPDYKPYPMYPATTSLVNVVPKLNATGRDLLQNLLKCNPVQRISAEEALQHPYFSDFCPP
# UniProt Q00534, whole entry: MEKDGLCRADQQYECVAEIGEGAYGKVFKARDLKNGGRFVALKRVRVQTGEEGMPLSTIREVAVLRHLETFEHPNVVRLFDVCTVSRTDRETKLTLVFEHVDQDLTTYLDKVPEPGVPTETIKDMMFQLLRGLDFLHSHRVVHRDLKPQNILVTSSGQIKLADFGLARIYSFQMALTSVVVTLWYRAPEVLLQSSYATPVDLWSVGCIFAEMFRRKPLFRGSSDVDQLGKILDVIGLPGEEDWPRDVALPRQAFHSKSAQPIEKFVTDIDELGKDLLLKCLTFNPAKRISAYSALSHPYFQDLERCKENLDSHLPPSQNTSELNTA
# How the values were obtained:
# Test in all cases: kinase-Nluc reporter destabilization hit call (1 = scored as downregulated) (binary); higher = compound decreases kinase abundance
# Conditions in all cases: K562; 2-18 h
# ABL1 = ABL1 (UniProt P00519)
# AKT1 = AKT1 (UniProt P31749)
# ALK = ALK (UniProt Q9UM73)
# ARAF = ARAF (UniProt P10398)
# AURKA = AURKA (UniProt O14965)
# AURKB = AURKB (UniProt Q96GD4)
# AURKC = AURKC (UniProt Q9UQB9)
# BLK = BLK (UniProt P51451)
# BMX = BMX (UniProt P51813)
# BRAF = BRAF (UniProt P15056)
# BRAF_V600E = test system: BRAF_V600E
# BTK = BTK (UniProt Q06187)
# CAMK2A = CAMK2A (UniProt Q9UQM7)
# CAMK2G = CAMK2G (UniProt Q13555)
# CDK10 = CDK10 (UniProt Q15131)
# CDK2 = CDK2 (UniProt P24941)
# CDK3 = CDK3 (UniProt Q00526)
# CDK4 = CDK4 (UniProt P11802)
# CDK5 = CDK5 (UniProt Q00535)
# CDK6 = CDK6 (UniProt Q00534)
Compound,kinase-Nluc reporter destabilization hit call (ABL1),kinase-Nluc reporter destabilization hit call (AKT1),kinase-Nluc reporter destabilization hit call (ALK),kinase-Nluc reporter destabilization hit call (ARAF),kinase-Nluc reporter destabilization hit call (AURKA),kinase-Nluc reporter destabilization hit call (AURKB),kinase-Nluc reporter destabilization hit call (AURKC),kinase-Nluc reporter destabilization hit call (BLK),kinase-Nluc reporter destabilization hit call (BMX),kinase-Nluc reporter destabilization hit call (BRAF),kinase-Nluc reporter destabilization hit call (BRAF_V600E),kinase-Nluc reporter destabilization hit call (BTK),kinase-Nluc reporter destabilization hit call (CAMK2A),kinase-Nluc reporter destabilization hit call (CAMK2G),kinase-Nluc reporter destabilization hit call (CDK10),kinase-Nluc reporter destabilization hit call (CDK2),kinase-Nluc reporter destabilization hit call (CDK3),kinase-Nluc reporter destabilization hit call (CDK4),kinase-Nluc reporter destabilization hit call (CDK5),kinase-Nluc reporter destabilization hit call (CDK6)
COCCOc1ccc2c(c1)ncn2-c1ccc2cccc(N3CCC(N)CC3)c2n1 (10 µM),inactive: 0,inactive: 0,inactive: 0,inactive: 0,inactive: 0,inactive: 0,inactive: 0,inactive: 0,inactive: 0,inactive: 0,active: 1,inactive: 0,inactive: 0,inactive: 0,inactive: 0,inactive: 0,inactive: 0,inactive: 0,inactive: 0,inactive: 0
CC1=C(C(=O)Nc2cc3cn[nH]c3cc2F)C(c2ccc(C(F)(F)F)cc2)CC(=O)N1 (stereo not given) (10 µM),inactive: 0,inactive: 0,inactive: 0,inactive: 0,inactive: 0,inactive: 0,inactive: 0,inactive: 0,inactive: 0,inactive: 0,inactive: 0,inactive: 0,inactive: 0,inactive: 0,inactive: 0,inactive: 0,inactive: 0,inactive: 0,inactive: 0,inactive: 0
CC(C)n1c(=O)n(C)c2cnc3cc(F)c(-c4ccc(OCCCN5CCCCC5)nc4)cc3c21 (10 µM),inactive: 0,inactive: 0,inactive: 0,inactive: 0,inactive: 0,inactive: 0,inactive: 0,inactive: 0,inactive: 0,inactive: 0,inactive: 0,inactive: 0,inactive: 0,inactive: 0,inactive: 0,inactive: 0,inactive: 0,inactive: 0,inactive: 0,inactive: 0
Cc1cc(-n2c(=O)ccc3c[nH]c4nccc-4c32)ccc1F (10 µM),inactive: 0,inactive: 0,inactive: 0,inactive: 0,inactive: 0,inactive: 0,inactive: 0,inactive: 0,inactive: 0,inactive: 0,inactive: 0,inactive: 0,inactive: 0,inactive: 0,inactive: 0,inactive: 0,inactive: 0,inactive: 0,inactive: 0,inactive: 0
COc1cc2c(cc1OC)/C(=C/c1ccc(O)cc1)C(=O)N2 (10 µM),inactive: 0,inactive: 0,inactive: 0,inactive: 0,inactive: 0,inactive: 0,inactive: 0,inactive: 0,inactive: 0,inactive: 0,inactive: 0,inactive: 0,inactive: 0,inactive: 0,inactive: 0,inactive: 0,inactive: 0,inactive: 0,inactive: 0,inactive: 0
CN1CCN(c2cc(-c3ccncc3)c(-c3ccc4ccccc4c3)nn2)CC1 (10 µM),inactive: 0,inactive: 0,inactive: 0,inactive: 0,inactive: 0,inactive: 0,inactive: 0,inactive: 0,inactive: 0,inactive: 0,inactive: 0,inactive: 0,inactive: 0,inactive: 0,inactive: 0,inactive: 0,inactive: 0,inactive: 0,inactive: 0,inactive: 0
COc1cc2ncnc(Nc3cccc(I)c3)c2cc1OC (2.5 µM),inactive: 0,inactive: 0,inactive: 0,inactive: 0,inactive: 0,inactive: 0,inactive: 0,inactive: 0,inactive: 0,inactive: 0,inactive: 0,inactive: 0,inactive: 0,inactive: 0,inactive: 0,inactive: 0,inactive: 0,inactive: 0,inactive: 0,inactive: 0
CC(Cc1ccc(O)c(O)c1)C(C)Cc1ccc(O)c(O)c1 (stereo not given) [Nordihydroguaiaretic acid] (2.5 µM),inactive: 0,inactive: 0,inactive: 0,inactive: 0,inactive: 0,inactive: 0,inactive: 0,inactive: 0,inactive: 0,inactive: 0,inactive: 0,inactive: 0,inactive: 0,inactive: 0,inactive: 0,inactive: 0,inactive: 0,inactive: 0,inactive: 0,inactive: 0
COc1cc2cc(Oc3ccc4ccc(=O)oc4c3)c(=O)oc2cc1O [Daphnoretin] (10 µM),inactive: 0,inactive: 0,inactive: 0,inactive: 0,inactive: 0,inactive: 0,inactive: 0,inactive: 0,inactive: 0,inactive: 0,inactive: 0,inactive: 0,inactive: 0,inactive: 0,inactive: 0,inactive: 0,inactive: 0,inactive: 0,inactive: 0,inactive: 0
CCn1c(-c2nonc2N)nc2c(C#CC(C)(C)O)ncc(OC[C@H]3CCCNC3)c21 (10 µM),inactive: 0,inactive: 0,inactive: 0,inactive: 0,inactive: 0,inactive: 0,inactive: 0,inactive: 0,inactive: 0,inactive: 0,inactive: 0,inactive: 0,inactive: 0,inactive: 0,inactive: 0,inactive: 0,inactive: 0,inactive: 0,inactive: 0,inactive: 0
Cc1c(C(=O)Nc2ccc(Oc3ccnc4[nH]cc(-c5ccccc5)c34)c(F)c2)c(=O)n(-c2ccc(F)cc2)n1C (10 µM),inactive: 0,inactive: 0,inactive: 0,inactive: 0,inactive: 0,inactive: 0,inactive: 0,inactive: 0,inactive: 0,inactive: 0,inactive: 0,inactive: 0,inactive: 0,inactive: 0,inactive: 0,inactive: 0,inactive: 0,inactive: 0,inactive: 0,inactive: 0
Clc1ccc(C(c2ccc(Cl)cc2)[n+]2ccn(CC(OCc3ccc(Cl)cc3Cl)c3ccc(Cl)cc3Cl)c2)cc1 (stereo not given) [Calmidazolium chloride] (2.5 µM),inactive: 0,inactive: 0,inactive: 0,inactive: 0,inactive: 0,inactive: 0,inactive: 0,inactive: 0,inactive: 0,inactive: 0,inactive: 0,inactive: 0,inactive: 0,inactive: 0,inactive: 0,inactive: 0,inactive: 0,inactive: 0,inactive: 0,inactive: 0
O=C(Nc1cc(Cl)cc2c1[nH]c1cnccc12)c1cccnc1 (10 µM),inactive: 0,inactive: 0,inactive: 0,inactive: 0,inactive: 0,inactive: 0,inactive: 0,inactive: 0,inactive: 0,inactive: 0,inactive: 0,inactive: 0,inactive: 0,inactive: 0,inactive: 0,inactive: 0,inactive: 0,inactive: 0,inactive: 0,inactive: 0
Nc1nccc(-c2c(-c3ccc(F)cc3)ncn2C2CCCCC2)n1 (10 µM),inactive: 0,inactive: 0,inactive: 0,inactive: 0,inactive: 0,inactive: 0,inactive: 0,inactive: 0,inactive: 0,inactive: 0,inactive: 0,inactive: 0,inactive: 0,inactive: 0,inactive: 0,inactive: 0,inactive: 0,inactive: 0,inactive: 0,inactive: 0
Cc1cc(C(=O)Nc2nc3cccc(Cl)c3n2[C@@H]2CCCCN(C(=O)/C=C/CN(C)C)C2)ccn1 [Nazartinib] (10 µM),inactive: 0,inactive: 0,inactive: 0,inactive: 0,inactive: 0,inactive: 0,inactive: 0,inactive: 0,inactive: 0,inactive: 0,inactive: 0,inactive: 0,inactive: 0,inactive: 0,inactive: 0,inactive: 0,inactive: 0,inactive: 0,inactive: 0,inactive: 0
Cc1nc[nH]c1CN1CCN(C(=O)N[C@@H](CC(C)C)C(=O)O)[C@@H](Cc2ccccc2)C1=O (10 µM),inactive: 0,inactive: 0,inactive: 0,inactive: 0,inactive: 0,inactive: 0,inactive: 0,inactive: 0,inactive: 0,inactive: 0,inactive: 0,inactive: 0,inactive: 0,inactive: 0,inactive: 0,inactive: 0,inactive: 0,inactive: 0,inactive: 0,inactive: 0
C[C@H]1O[C@@H](O[C@H]2CC[C@@]3(C)[C@@H](CC[C@]4(C)[C@@H]3C=C[C@]35OC[C@@]6(CCC(C)(C)C[C@H]63)[C@H](O)C[C@]54C)[C@]2(C)CO)[C@H](O)[C@@H](O[C@@H]2O[C@H](CO)[C@@H](O)[C@H](O)[C@H]2O)[C@H]1O [Saikosaponin D] (2.5 µM),inactive: 0,inactive: 0,inactive: 0,inactive: 0,inactive: 0,inactive: 0,inactive: 0,inactive: 0,inactive: 0,inactive: 0,inactive: 0,inactive: 0,inactive: 0,inactive: 0,inactive: 0,inactive: 0,inactive: 0,inactive: 0,inactive: 0,inactive: 0
Nc1nc2c(nc(Br)n2[C@@H]2O[C@@H]3COP(=O)(O)O[C@H]3[C@H]2O)c(=O)[nH]1 [8-Bromo-cGMP (sodium)] (10 µM),inactive: 0,inactive: 0,inactive: 0,inactive: 0,inactive: 0,inactive: 0,inactive: 0,inactive: 0,inactive: 0,inactive: 0,inactive: 0,inactive: 0,inactive: 0,inactive: 0,inactive: 0,inactive: 0,inactive: 0,inactive: 0,inactive: 0,inactive: 0

# A few values from the list:
# Cc1cc(-n2c(=O)ccc3c[nH]c4nccc-4c32)ccc1F (10 µM) | kinase-Nluc reporter destabilization hit call (AKT1): inactive: 0
# CCn1c(-c2nonc2N)nc2c(C#CC(C)(C)O)ncc(OC[C@H]3CCCNC3)c21 (10 µM) | kinase-Nluc reporter destabilization hit call (CDK3): inactive: 0
